In PMC4855144 one finds binding data, which are given here for one molecule.

Sequences of proteins named here, by UniProt entry; tags and fusion partners are left off. A change or cut given only in a name is not applied to a line headed by its entry. Residues count along the entry.
UniProt O00401: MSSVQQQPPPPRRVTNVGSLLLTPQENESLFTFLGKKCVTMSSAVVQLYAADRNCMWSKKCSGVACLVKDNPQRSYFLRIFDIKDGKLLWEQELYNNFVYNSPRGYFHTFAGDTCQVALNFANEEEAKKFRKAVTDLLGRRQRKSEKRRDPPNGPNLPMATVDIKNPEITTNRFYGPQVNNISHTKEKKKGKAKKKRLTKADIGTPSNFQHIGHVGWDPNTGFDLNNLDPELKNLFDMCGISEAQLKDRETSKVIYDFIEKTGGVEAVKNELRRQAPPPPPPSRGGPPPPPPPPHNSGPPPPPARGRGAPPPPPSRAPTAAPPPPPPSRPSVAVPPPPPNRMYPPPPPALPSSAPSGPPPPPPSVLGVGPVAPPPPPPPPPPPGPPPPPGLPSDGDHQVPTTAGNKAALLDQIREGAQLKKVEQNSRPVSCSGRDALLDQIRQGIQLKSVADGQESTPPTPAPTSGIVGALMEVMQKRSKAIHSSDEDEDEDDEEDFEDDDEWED
GFP-N-WASP WH1 (WH1 domain only): residues 34-141 of O00401

Experiment [1] addresses GFP-tagged full-length N-WASP (UniProt O00401). As to the kind of experiment: co-IP; GFP microbeads precipitate GFP-N-WASP and fragments ΔWA, WH1, WH1-GBD from HEK293T cell extracts; endogenous CRN7 detected with mAb K37-142-1; ratio of co-IP to IP.
The target of experiment [2] is GFP-N-WASP WH1 (WH1 domain only) (UniProt O00401). Described as above.

Results are given in words; binding and its absence hold for the method and conditions named. Binding seen in cells or lysates may run through a third protein. Some results given as binding are weak or reduced against the parent protein; the word gives no strength.

B1: endogenous CRN7 (Coronin7) of HEK293T cells (protein, UniProt P57737 1-925)
chain: MNRFRVSKFRHTEARPPRRESWISDIRAGTAPSCRNHIKSSCSLIAFNSDRPGVLGIVPLQGQGEDKRRVAHLGCHSDLVTDLDFSPFDDFLLATGSADRTVKLWRLPGPGQALPSAPGVVLGPEDLPVEVLQFHPTSDGILVSAAGTTVKVWDAAKQQPLTELAAHGDLVQSAVWSRDGALVGTACKDKQLRIFDPRTKPRASQSTQAHENSRDSRLAWMGTWEHLVSTGFNQMREREVKLWDTRFFSSALASLTLDTSLGCLVPLLDPDSGLLVLAGKGERQLYCYEVVPQQPALSPVTQCVLESVLRGAALVPRQALAVMSCEVLRVLQLSDTAIVPIGYHVPRKAVEFHEDLFPDTAGCVPATDPHSWWAGDNQQVQKVSLNPACRPHPSFTSCLVPPAEPLPDTAQPAVMETPVGDADASEGFSSPPSSLTSPSTPSSLGPSLSSTSGIGTSPSLRSLQSLLGPSSKFRHAQGTVLHRDSHITNLKGLNLTTPGESDGFCANKLRVAVPLLSSGGQVAVLELRKPGRLPDTALPTLQNGAAVTDLAWDPFDPHRLAVAGEDARIRLWRVPAEGLEEVLTTPETVLTGHTEKICSLRFHPLAANVLASSSYDLTVRIWDLQAGADRLKLQGHQDQIFSLAWSPDGQQLATVCKDGRVRVYRPRSGPEPLQEGPGPKGGRGARIVWVCDGRCLLVSGFDSQSERQLLLYEAEALAGGPLAVLGLDVAPSTLLPSYDPDTGLVLLTGKGDTRVFLYELLPESPFFLECNSFTSPDPHKGLVLLPKTECDVREVELMRCLRLRQSSLEPVAFRLPRVRKEFFQDDVFPDTAVIWEPVLSAEAWLQGANGQPWLLSLQPPDMSPVSQAPREAPARRAPSSAQYLEEKSDQQKKEELLNAMVAKLGNREDPLPQDSFEGVDEDEWD
Consider B1, for which the binding result is “binds weakly” in experiment [1] and “binds” in experiment [2].
